Measurements: paper PMC11843928
Results are given in words; binding and its absence hold for the method and conditions named. In cells and extracts the contact can be indirect. Some entries that bind do so weakly or less than the wild type. Where a sequence is shown, tags or fusion partners need not be part of it.

T1: GPA1-nLuc (canonical Arabidopsis Gα subunit GPA1 fused to the N-terminal luciferase fragment) (Arabidopsis thaliana) (UniProt P18064)
T1 sequence: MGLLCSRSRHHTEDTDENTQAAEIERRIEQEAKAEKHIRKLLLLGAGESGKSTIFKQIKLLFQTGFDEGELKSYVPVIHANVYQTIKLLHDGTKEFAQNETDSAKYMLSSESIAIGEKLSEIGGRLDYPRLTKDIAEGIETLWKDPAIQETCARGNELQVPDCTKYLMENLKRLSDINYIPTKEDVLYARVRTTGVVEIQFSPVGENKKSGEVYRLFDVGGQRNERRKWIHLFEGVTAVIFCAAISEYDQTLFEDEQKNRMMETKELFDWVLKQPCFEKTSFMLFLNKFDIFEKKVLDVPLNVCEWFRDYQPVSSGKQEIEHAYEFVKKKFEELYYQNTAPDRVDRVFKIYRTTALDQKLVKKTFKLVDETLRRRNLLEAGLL


Biological target: T1, GPA1-nLuc (canonical Arabidopsis Gα subunit GPA1 fused to the N-terminal luciferase fragment) (Arabidopsis thaliana)
Test: split reporter; split luciferase; GPA1-nLuc with cLuc fusions, luminescence compared with the GPA1-nLuc + EV-cLuc parent vector control; performed 3 independent times

| binding | Binder |
| --- | --- |
| binds | AtGCR1-cLuc (Arabidopsis thaliana GCR1 fused to the C-terminal luciferase fragment) (receptor, UniProt O04714 1-326) MSAVLTAGGGLTAGDRSIITAINTGASSLSFVGSAFIVLCYCLFKELRKFSFKLVFYLALSDMLCSFFLIVGDPSKGFICYAQGYTTHFFCVASFLWTTTIAFTLHRTVVKHKTDVEDLEAMFHLYVWGTSLVVTVIRSFGNNHSHLGPWCWTQTGLKGKAVHFLTFYAPLWGAILYNGFTYFQVIRMLRNARRMAVGMSDRVDQFDNRAELKVLNRWGYYPLILIGSWAFGTINRIHDFIEPGHKIFWLSVLDVGTAALMGLFNSIAYGFNSSVRRAIHERLELFLPERLYRWLPSNFRPKNHLILHQQQQQRSEMVSLKTEDQQ |
| binds | RGS1-cLuc (7TM RGS1 protein fused to the C-terminal luciferase fragment) (protein, UniProt Q8H1F2 1-459) MASGCALHGGCPSDYVAVAISVICFFVLLSRSVLPCLIHKAPRTNSSSFWIPVIQVISSFNLLFSIMMSVNLLRFRTKHWWRYCYLWAVWIEGPLGFGLLMSCRITQAFQLYFIFVKKRLPPVKSYIFLPLVLLPWIFGAAIIHATKPLNDKCHMGLQWTFPVAGLHALYVLALIAFTRAVRHVEFRFDELRDLWKGILVSATSIVIWVTAFVLNEIHEEISWLQVASRFVLLVTGGILVVVFFSISSNQPLLSQISLKKRQNFEFQRMGQALGIPDSGLLFRKEEFRPVDPNEPLDKLLLNKRFRHSFMEFADSCYAGETLHFFEEVYEHGKIPEDDSIRRIYMARHIMEKFIVAGAEMELNLSHKTRQEILTTQDLTHTDLFKNALNEVMQLIKMNLVRDYWSSIYFIKFKEEESCHEAMHKEGYSFSSPRLSSVQGSDDPFYQEHMSKSSRCSSPG |
